For 35 compounds, cell number change and AC50 results are on record in PubChem BioAssay AID2685 (National Center for Advancing Translational Sciences (NCATS), 2010).

The other results are listed elsewhere or left out. Shown are side measurements of this screen, not its main read-out; they come without a call. The list favours compounds with an active or inconclusive main result. Words in brackets tell the shape of the fitted curve; partial curves, single points and poor fits give uncertain potencies.

This experiment in a line: qHTS Assay for Lipid Storage Modulators in Drosophila S3 Cells.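 For cell number change: cells counted by Cell Tracker Red CMTPX staining in the red channel.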 The following applies: BODIPY lipid droplet fluorescence, 18-24 h; for cell number change: measured here: cell count max response, cells fed with added oleic acid. An outline of the steps:
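Drosophila S3 cells got compounds at several concentrations plus oleic acid (400 uM solution). Laser-scanning cytometry with 488 nm excitation read lipid droplets at 500-530 nm and cells at 575-640 nm. Percent activity was relative to 20 uM Triacsin C.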

The mark [1] stands for this setting: measured here: cell number channel AC50, cells fed with added oleic acid.
Setting [2] is: measured here: lipid fluorescence (Fed channel) AC50, cells fed with added oleic acid.

`COc1ccc(N(Cc2nnc3n2CCCCC3)C(=O)Nc2ccccc2)cc1`: the cell number change is 1.72%. For the same compound, under setting [1], the AC50 is 820 nM [falling, full curve, poor fit]. Moreover, the AC50 under setting [2] was 5.17 nM [falling, full curve, poor fit].

With `C=CCn1c(SC)nc2sc3c(c2c1=O)CCc1ccccc1-3`, the cell number change stood at 99.5%. Besides, the AC50 under setting [1] is 29100 nM [rising, single point]. The AC50 under setting [2] was 25900 nM [rising, partial curve].

For the compound `O=C(Oc1cc(-c2ccccc2)no1)c1ccc(F)cc1`, the cell number change is 38.3%. The concentration at half-maximal activity (AC50) under setting [1] is 16400 nM [rising, partial curve, poor fit]. Besides, the half-maximal activity concentration (AC50) under setting [2] is 4.61 nM [rising, full curve, poor fit].

Take `CC(=O)Oc1ccc2nc(-c3ccc(Br)o3)oc(=O)c2c1`: the cell number change was -10.2%.

As to `CCC(NC(=O)NC1=NCCS1)(C(F)(F)F)C(F)(F)F`, the cell number change stood at 0.326%. Also, the concentration at half-maximal activity (AC50) under setting [2] is 32600 nM [falling, single point].

In the case of `CCOC(=O)C1=C(COC(=O)CCOc2cccc(C)c2)NC(=O)NC1C` (stereo not given), the cell number change was -6.81%. Further, the AC50 under setting [2] was 3260 nM [falling, single point].

As for `COc1cccc(CC2(CO)CCN(S(=O)(=O)c3ccc(OC)cc3OC)CC2)c1`, the cell number change is 18.2%.

Turning to `COc1ccc(N=c2oc3ccc(OC)cc3cc2-c2nc3ccccc3[nH]2)cc1`, the cell number change was -60.6%. Besides, the half-maximal activity concentration (AC50) under setting [1] is 29100 nM [falling, single point]. Under setting [2], the concentration at half-maximal activity (AC50) was 6510 nM [falling, single point].

Regarding `O=C1COc2ccc(S(=O)(=O)N3CCCCC3)cc2N1`, the cell number change is -17.7%. Also, the AC50 under setting [2] is 29100 nM [rising, single point].

`CCOc1ccc(S(=O)(=O)N2CCOCC2)cc1NC(=O)c1ccccc1F`: the cell number change was 60.3%. Moreover, the half-maximal activity concentration (AC50) under setting [1] is 23100 nM [rising, partial curve, poor fit]. The AC50 under setting [2] is 5170 nM [rising, single point].

As to `CCc1cc2c(=O)nc3n(c2s1)Cc1ccccc1/C3=C(/O)c1ccccc1Cl`, the cell number change came to 3.95%. Under setting [2], the AC50 is 2910 nM [rising, partial curve].

`CCc1nnc2n1N=C(c1cccc([N+](=O)[O-])c1)CS2`: the cell number change was determined as 15.6%. The AC50 under setting [2] is 130 nM [rising, full curve, poor fit].

Regarding `CCOC(=O)c1c(NC(=O)CS(=O)(=O)c2cn(CC)c3ccccc23)sc2c1CCCCC2`, the cell number change worked out at 17.4%. The AC50 under setting [2] was 130 nM [rising, single point].

For `CCC1CCCCN1CC(=O)Nc1cc(OC)c(OC)cc1C#N` (stereo not given), the cell number change came to 18.4%. For the same compound, the half-maximal activity concentration (AC50) under setting [1] was 411 nM [rising, partial curve, poor fit]. For the same compound, the half-maximal activity concentration (AC50) under setting [2] is 920 nM [rising, full curve, poor fit].

For `O=C(Nc1ccc(F)cc1)N1CCN(c2ccc(F)cc2)CC1`, the cell number change is 5.79%. For the same compound, the concentration at half-maximal activity (AC50) under setting [2] was 29100 nM [rising, single point].

For the compound `CCCCn1nc(C(=O)Nc2ccc(S(=O)(=O)Nc3ncccn3)cc2)c2ccccc2c1=O`, the cell number change is -19.4%. For the same compound, the AC50 under setting [1] was 820 nM [falling, full curve, poor fit].

Take `O=C(N/N=C/c1sc(=O)n(Cc2ccc(Br)cc2)c1Cl)c1ccco1`: the cell number change amounted to 70.8%. Also, the concentration at half-maximal activity (AC50) under setting [1] is 29100 nM [rising, single point]. In addition, the concentration at half-maximal activity (AC50) under setting [2] is 29100 nM [falling, single point].

Consider `Cc1cccc(C(=O)Nc2cccc(OCC(=O)O)c2)c1`, for which the cell number change is -25.3%.

Turning to `N#Cc1cccc2cccc(S(=O)(=O)N3CCOCC3)c12`, the cell number change is -8.51%. Also, the half-maximal activity concentration (AC50) under setting [1] is 820 nM [falling, full curve, poor fit]. Further, under setting [2], the AC50 is 731 nM [falling, single point].

Take `N#CC(C#N)=C1C=CC=CN1/C(=C\c1ccccc1)C(=O)c1cccs1`: the cell number change is -47%. In addition, the half-maximal activity concentration (AC50) under setting [1] was 2310 nM [rising, partial curve]. The half-maximal activity concentration (AC50) under setting [2] is 29100 nM [falling, single point].

With `Cc1cccc(-c2cc3nc4c(c(N5CCCC(O)C5)n3n2)CCC4)c1` (stereo not given), the cell number change came to 29.7%. In addition, the concentration at half-maximal activity (AC50) under setting [1] is 1640 nM [rising, single point]. The AC50 under setting [2] was 2590 nM [rising, partial curve].

Take `Cc1sc(NC(=O)CSc2nnc(COc3ccc(Cl)cc3)n2C)c(C#N)c1C`: the cell number change was -3.86%. Further, under setting [2], the half-maximal activity concentration (AC50) was 29100 nM [falling, single point].

Consider `CCOc1cnn(-c2cc(Oc3ccc(C)cc3)ncn2)c(=O)c1Cl`, for which the cell number change is 15.5%. The AC50 under setting [2] was 3260 nM [falling, partial curve].

Consider `CC(=O)c1cccc(NC(=O)c2sc3nc4n(c(=O)c3c2C)CCCC4)c1`, for which the cell number change is -8.66%.

On to `Cc1cc(C)c(S(=O)(=O)NCC(CCC(=O)O)C(F)(F)F)c(C)c1` (stereo not given), for which the cell number change was 25.2%. Further, the AC50 under setting [2] was 29100 nM [rising, single point].

As to `Cc1cc(C(F)F)n2ncc(C(=O)NCCc3ccc(Cl)cc3)c2n1`, the concentration at half-maximal activity (AC50) by setting is: under setting [1], 1160 nM [rising, partial curve]; under setting [2], 731 nM [rising, partial curve, poor fit].

As for `Cc1cc2c(s1)c(C=O)c(C(=O)NCc1ccccc1F)n2C`, the cell number change stood at 1.91%.

For `N#CC1=C(N)Oc2c(oc(CO)cc2=O)C1c1ccsc1` (stereo not given), the cell number change turned out to be 2.73%. For the same compound, the concentration at half-maximal activity (AC50) under setting [2] was 6510 nM [rising, single point].

For `COc1ccc(-n2c(N)c(C(=O)NCc3ccco3)c3nc4ccccc4nc32)c(OC)c1`, the cell number change came to 105%. The AC50 under setting [1] was 10.3 nM [rising, full curve, poor fit]. For the same compound, under setting [2], the AC50 was 580 nM [rising, single point].

Regarding `COc1ccc(CNC(=O)COC(=O)C2CCC(C(C)(C)C)CC2)cc1` (stereo not given), the cell number change is -0.4%. In addition, the AC50 under setting [2] is 5170 nM [falling, partial curve, poor fit].

As for `COc1ccccc1-c1cc(C(=O)NCCCn2ccnc2)no1`, under setting [2], the AC50 is 1640 nM [rising, partial curve].

`Cc1sc2ccccc2[n+]1CC(=O)c1ccccc1`: the cell number change amounted to 14.7%. Also, the AC50 under setting [2] was 29100 nM [rising, single point].

As for `Cc1cc(C(=O)NC2CCCc3c2cnn3-c2ccccc2F)nc(C)n1` (stereo not given), the cell number change was -28.3%. Under setting [1], the concentration at half-maximal activity (AC50) is 2910 nM [falling, full curve, poor fit]. The concentration at half-maximal activity (AC50) under setting [2] was 2310 nM [falling, partial curve].

Consider `COc1ccc(C)cc1NC(=O)CSc1nnc(-c2ccc(Br)cc2)o1`, for which the concentration at half-maximal activity (AC50) under setting [2] was 29100 nM [falling, single point].

With `CCc1ccccc1NC(=O)CN1CCN(CC(=O)NCc2ccc(Cl)cc2)CC1`, the cell number change amounted to 1.67%. Under setting [2], the AC50 was 651 nM [rising, single point].
